The values that follow come from the supplement of paper PMC12889115.

This is one part of the list. These are raw signals, not scaled to a control.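 Primary screen: polymyxin B was added at a level permeabilizing Salmonella outer membranes while sparing inner membranes. DMSO wells, both with and without polymyxin B, established maximum growth. Plate-to-plate variation meant each plate was ranked on its own, and the lowest-OD600 compounds were selected as hits.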

The subject of this assay is Salmonella enterica serovar Typhimurium SL1344. Kind of assay: bacterial growth OD600 after 18 h with compound and polymyxin B; higher = more bacterial growth (less inhibition). The conditions noted are these: 50 µM, Mueller-Hinton broth.

For the compound `CC(C)(C)CN1CCC(Oc2cc(Cl)ccc2C(=O)N2CCCCC2)CC1`, the “bacterial growth OD600” value (polymyxin B 1 µg/mL) was determined as 0.996.

For the compound `O=C1N(Cc2cccc(F)c2F)CCCC1(O)CN1CCCCC1` (stereo unspecified), the “bacterial growth OD600” value (polymyxin B 1 µg/mL) is 0.928.

In the case of `O=C(NCc1cccnc1)c1ccc(N2CCC(NCC3CCCN(c4ncccn4)C3)CC2)cc1` (stereo unspecified), the “bacterial growth OD600” value (polymyxin B 0.75 µg/mL) was 0.847.

`CN(Cc1nccn1C)C(=O)CC1C(=O)NCCN1CCCc1ccccc1` (stereo unspecified): the “bacterial growth OD600” value (polymyxin B 1 µg/mL) was found to be 0.969.

Turning to `COc1ccc(F)c(CC2(CCC(=O)N3CCN(c4nonc4C)CC3)CCC(=O)N2)c1` (stereo unspecified), the “bacterial growth OD600” value (polymyxin B 0.75 µg/mL) stood at 0.869.

`COc1cc(OC)c(CN2CCOc3ccc(C(O)CCc4ccccc4)cc3C2)c(OC)c1` (stereo unspecified): where the note is “polymyxin B 0.75 µg/mL”, the “bacterial growth OD600” value amounted to 0.716.

Turning to `COCCNC(=O)c1ccc(OC)cc1OC1CCN(Cc2cccc(SC)c2)CC1`, under “polymyxin B 1 µg/mL”, the “bacterial growth OD600” value amounted to 0.873.

For the compound `COc1ccc(Cc2noc(-c3ccc(N4CCC(OC)CC4)nc3)n2)cc1`, where the note is “polymyxin B 1 µg/mL”, the “bacterial growth OD600” value was determined as 0.913.

As to `COc1ccc(CN2C[C@@H]3C[C@@H](c4ccc(-c5ccco5)cc4)N4CCC[C@@]34C2=O)cc1`, the “bacterial growth OD600” value (polymyxin B 0.75 µg/mL) was 0.807.

As for `COCCN1CCCC(O)(CNC2Cc3ccccc3C2)C1=O` (stereo unspecified), the “bacterial growth OD600” value (polymyxin B 1 µg/mL) is 0.986.

For `Cc1cc(C)n(-c2ccc(NC(=O)C3CCN(C(=O)c4cncs4)CC3)cc2)n1`, the “bacterial growth OD600” value (polymyxin B 1 µg/mL) came to 0.859.

In the case of `COc1ccc(Cn2cc(C(=O)N(Cc3nccn3C)C(C)C)nn2)cc1`, the “bacterial growth OD600” value (polymyxin B 1 µg/mL) was 1.08.

As to `Cc1nc2ccccc2n1Cc1cc(C(=O)N2C[C@@H](C)O[C@@H](C)C2)no1`, the “bacterial growth OD600” value (polymyxin B 1 µg/mL) amounted to 0.895.

As to `COC(=O)c1ccc(N2CCN(C(=O)Cn3nnnc3CN(C)C(C)C)CC2)cc1`, the “bacterial growth OD600” value (polymyxin B 0.75 µg/mL) was determined as 0.864.

For `CCC1CN(Cc2cccn2-c2ncccn2)Cc2ccc(Cl)cc2O1` (stereo unspecified), the “bacterial growth OD600” value (polymyxin B 0.75 µg/mL) stood at 0.687.

As to `COc1ccc(OC)c(Cc2nnc(CCC(=O)NCc3csc(C(C)C)n3)o2)c1`, the “bacterial growth OD600” value (polymyxin B 1 µg/mL) is 1.01.

Regarding `COc1ccc(-n2cc(CNCc3cnn(C)c3)c(-c3cccc(F)c3)n2)cc1`, the “bacterial growth OD600” value (polymyxin B 1 µg/mL) turned out to be 0.812.

On to `COc1ccccc1CN(C)C(=O)CCn1nnnc1CN1CCOCC1`, for which, where the note is “polymyxin B 1 µg/mL”, the “bacterial growth OD600” value was 0.861.

On to `CCNC(=O)c1cn(CCc2ccccc2)cc(C(=O)N2CCC(c3ccccc3)CC2)c1=O`, for which, for the setting “polymyxin B 0.75 µg/mL”, the “bacterial growth OD600” value is 0.888.

In the case of `COc1ccc(OCc2cc(C(=O)N(Cc3nccn3C)C(C)C)no2)c2ccccc12`, the “bacterial growth OD600” value (polymyxin B 1 µg/mL) came out at 0.774.

With `Cc1cccc(-c2cnc(-c3ccncc3)nc2C2CCN(C(=O)c3ccc(F)c(F)c3)CC2)c1`, under “polymyxin B 0.75 µg/mL”, the “bacterial growth OD600” value was 0.011.

With `CC(C)Oc1cccc(C(=O)C2CCCN(C(=O)c3ccsc3)C2)c1` (stereo unspecified), where the note is “polymyxin B 1 µg/mL”, the “bacterial growth OD600” value worked out at 0.905.

Take `O=C(c1coc(COc2ccc(F)cc2Cl)n1)N1CCCCCC1`: the “bacterial growth OD600” value (polymyxin B 1 µg/mL) came to 0.671.

`COCCN1CCN(C(=O)c2sc3ncnc(NCCc4ccccc4OC)c3c2C)CC1`: the “bacterial growth OD600” value (polymyxin B 0.75 µg/mL) was found to be 0.853.

Regarding `O=C(C1CC(Cc2cccc(F)c2)=NO1)N1CCC(C(O)c2cccs2)CC1` (stereo unspecified), where the note is “polymyxin B 0.75 µg/mL”, the “bacterial growth OD600” value was 0.773.

For `C=C(C)CN(CC)C(=O)C1CCC(=O)N(CCCN2CCCC2=O)C1` (stereo unspecified), where the note is “polymyxin B 1 µg/mL”, the “bacterial growth OD600” value worked out at 0.789.

`CC(=O)NCC1CCCN(C(=O)c2ccc3nc(Cc4cccc(Cl)c4)oc3c2)C1` (stereo unspecified): the “bacterial growth OD600” value (polymyxin B 1 µg/mL) worked out at 1.13.

Take `Fc1ccc(CN2CCCC3(CCN(C4CCC4)C3)C2)cc1` (stereo unspecified): the “bacterial growth OD600” value (polymyxin B 0.75 µg/mL) is 0.752.

`CC1(C)Cc2c(cnn2-c2cccc(F)c2)C(NC(=O)CCc2cnccn2)C1` (stereo unspecified): where the note is “polymyxin B 1 µg/mL”, the “bacterial growth OD600” value is 0.209.

`COc1cccc2c1OCC(CN1CCC(n3nccc3NC(=O)C3CC3)CC1)=C2`: for the setting “polymyxin B 1 µg/mL”, the “bacterial growth OD600” value amounted to 1.14.

In the case of `Cc1nc(CCNc2nc3nonc3nc2N2CCCC2)sc1C`, the “bacterial growth OD600” value (polymyxin B 0.75 µg/mL) is 0.803.
